Results are given in words; binding and its absence hold for the method and conditions named. Binding seen in cells or lysates may run through a third protein. A yes stands for co-enrichment or nearness to the bait. Other partners may have been found. Where a sequence is shown, tags or fusion partners need not be part of it.
B1: SOQ1 (protein, UniProt Q8VZ10 57-1055)
chain: VAAESPAATIATDDWGKVSAVLFDMDGVLCNSEDLSRRAAVDVFTEMGVEVTVDDFVPFMGTGEAKFLGGVASVKEVKGFDPDAAKERFFEIYLDKYAKPESGIGFPGALELVTECKNKGLKVAVASSADRIKVDANLKAAGLSLTMFDAIVSADAFENLKPAPDIFLAAAKILGVPTSECVVIEDALAGVQAAQAANMRCIAVKTTLSEAILKDAGPSMIRDDIGNISINDILTGGSDSTRNSTAMLEENTVSDKTSANGFQGSRRDILRYGSLGIALSCVYFAATNWKAMQYASPKALWNALVGAKSPSFTQNQGEGRVQQFVDYIADLESKQTATTVPEFPSKLDWLNTAPLQFRRDLKGKVVILDFWTYCCINCMHVLPDLEFLEKKYKDMPFTVVGVHSAKFDNEKDLDAIRNAVLRYDISHPVVNDGDMYMWRELGINSWPTFAVVSPNGKVIAQIAGEGHRKDLDDVVAAALTYYGGKNVLDSTPLPTRLEKDNDPRLATSPLKFPGKLAIDTLNNRLFISDSNHNRIIVTDLEGNFIVQIGSSGEEGFQDGSFEDAAFNRPQGLAYNAKKNLLYVADTENHALREIDFVNERVQTLAGNGTKGSDYQGGRKGTKQLLNSPWDVCFEPVNEKVYIAMAGQHQIWEYSVLDGITRVFSGNGYERNLNGSTPQTTSFAQPSGISLGPDLKEAYIADSESSSIRALDLQTGGSRLLAGGDPYFSENLFKFGDNDGVGAEVLLQHPLGVLCANDGQIYLTDSYNHKIKKLDPVTKRVVTLAGTGKAGFKDGKVKGAQLSEPAGLAITENGRLFVADTNNSLIRYIDLNKGEDSEILTLELKGVQPPTPKAKSLKRLRKRASADTKIVKVDSVTSREGDLNLKISLPDGYHFSKEARSKFVVDVEPENAVAIDPTEGTLSPEGSTMLHFIQSSTSASVGKISCKVYYCKEDEVCLYQSVQFEVPFKVESELSASPTITFTVTPRAPDAGGLQLQGTR
B2: STN7 (enzyme, UniProt Q9S713 46-562)
chain: AQLIDTVHNLFIGVGVGLPCTVMECGDMIYRSTLPKSNGLTITAPGVALALTALSYLWATPGVAPGFFDMFVLAFVERLFRPTFRKDDFVVGKKLGEGSFGVVYKVSLSKKRSNEEGEYVLKKATEYGAVEIWMNERVRRACGNSCADFVYGFLDKSSKKGPEYWLLWKYEGESTLAGLMQSKEFPYNVETIILGKVQDLPKGLERENKIIQTIMRQLLFALDGLHSTGIIHRDVKPQNIIFSEGSRSFKIIDLGAAADLRVGINYIPKEFLLDPRYAAPEQYIMSTQTPSAPSAPVAAALSPVLWQMNLPDRFDIYSIGLIFLQMAFPSLRSDSNLIQFNRQLKRCDYDLTAWRKLVEPRASADLRRGFELVDLDGGIGWELLTSMVRYKARQRISAKAALAHPYFDRQGLLALSVMQNLRMQYFRATQQDYSEAANWVIQLMAKNGTEKDGGFTETQLQELREKEPRKKANAQRNALASALRLQRKLVKTVTETIDEISDGRKTVWWNRWIPREE
B3: PGRL1A (protein, UniProt Q8H112 61-324)
chain: ATTEQSGPVGGDNVDSNVLPYCSINKAEKKTIGEMEQEFLQALQSFYYDGKAIMSNEEFDNLKEELMWEGSSVVMLSSDEQRFLEASMAYVSGNPILNDEEYDKLKLKLKIDGSDIVSEGPRCSLRSKKVYSDLAVDYFKMLLLNVPATVVALGLFFFLDDITGFEITYIMELPEPYSFIFTWFAAVPVIVYLALSITKLIIKDFLILKGPCPNCGTENTSFFGTILSISSGGKTNTVKCTNCGTAMVYDSGSRLITLPEGSQA
B4: Light-regulated protein 1 (LIR1) (protein, UniProt Q96500 42-141)
chain: SNNSSSSSSLTSDPNTVDYNSSILSVFPAEACEVISGYACSADIYPEVKLDTKPVSRPVASEPVDREYEEYNSPKTVFREEACDDLGGEFCEPDFQKDAN
B5: ZEP (Zeaxanthin epoxidase) (enzyme, UniProt Q9FGC7 60-667)
chain: AATALVEKEEKREAVTEKKKKSRVLVAGGGIGGLVFALAAKKKGFDVLVFEKDLSAIRGEGKYRGPIQIQSNALAALEAIDIEVAEQVMEAGCITGDRINGLVDGISGTWYVKFDTFTPAASRGLPVTRVISRMTLQQILARAVGEDVIRNESNVVDFEDSGDKVTVVLENGQRYEGDLLVGADGIWSKVRNNLFGRSEATYSGYTCYTGIADFIPADIESVGYRVFLGHKQYFVSSDVGGGKMQWYAFHEEPAGGADAPNGMKKRLFEIFDGWCDNVLDLLHATEEEAILRRDIYDRSPGFTWGKGRVTLLGDSIHAMQPNMGQGGCMAIEDSFQLALELDEAWKQSVETTTPVDVVSSLKRYEESRRLRVAIIHAMARMAAIMASTYKAYLGVGLGPLSFLTKFRVPHPGRVGGRFFVDIAMPSMLDWVLGGNSEKLQGRPPSCRLTDKADDRLREWFEDDDALERTIKGEWYLIPHGDDCCVSETLCLTKDEDQPCIVGSEPDQDFPGMRIVIPSSQVSKMHARVIYKDGAFFLMDLRSEHGTYVTDNEGRRYRATPNFPARFRSSDIIEFGSDKKAAFRVKVIRKTPKSTRKNESNNDKLLQTA
B6: DEGP2 (enzyme, UniProt O82261 70-607)
chain: DESSNPPQKMAFKAFGSPKKEKKESLSDFSRDQQTDPAKIHDASFLNAVVKVYCTHTAPDYSLPWQKQRQFTSTGSAFMIGDGKLLTNAHCVEHDTQVKVKRRGDDRKYVAKVLVRGVDCDIALLSVESEDFWKGAEPLRLGHLPRLQDSVTVVGYPLGGDTISVTKGVVSRIEVTSYAHGSSDLLGIQIDAAINPGNSGGPAFNDQGECIGVAFQVYRSEETENIGYVIPTTVVSHFLTDYERNGKYTGYPCLGVLLQKLENPALRECLKVPTNEGVLVRRVEPTSDASKVLKEGDVIVSFDDLHVGCEGTVPFRSSERIAFRYLISQKFAGDIAEIGIIRAGEHKKVQVVLRPRVHLVPYHIDGGQPSYIIVAGLVFTPLSEPLIEEECEDTIGLKLLTKARYSVARFRGEQIVILSQVLANEVNIGYEDMNNQQVLKFNGIPIRNIHHLAHLIDMCKDKYLVFEFEDNYVAVLEREASNSASLCILKDYGIPSERSADLLEPYVDPIDDTQALDQGIGDSPVSNLEIGFDGLVWA
B7: YCF3 (protein, UniProt P61843 1-168)
chain: MPRSRINGNFIDKTFTIVADILLRVIPTTSGEKEAFTYYRDGMSAQSEGNYAEALQNYYEAMRLEIDPYDRSYILYNIGLIHTSNGEHTKALEYYFRALERNPFLPQAFNNMAVICHYRGEQAIQQGDSEMAEAWFAQAAEYWKQAITLTPGNYIEAQNWLTITRRFE
B8: YCF4 (protein, UniProt P56788 1-184)
chain: MSWRSESIWIEFITGSRKTSNFCWAFILFLGSLGFLLVGTSSYLGRNVISLFPSQQIIFFPQGIVMSFYGIAGLFISCYLWCTILWNVGSGYDLFDRKEGIVRIFRWGFPGKSRRIFLRFFMKDIQSIRIEVKEGVSARRVLYMEIRGQGAIPLIRTDENFTTREIEQKAAELAYFLRVPIEVF
B9: Y3IP1 (protein, UniProt Q9LU01 63-280)
chain: KQEKGDVTEIRVPVPLTLEQQEKEKQNRDDEEDEIDEGDVDPEDLKYVNEIKRVIELLRRNRDMIFSEVKLTIMIEDPRELERRRLLGIEDADTPSRDDLAEALEQVNDGKIPKDRATLRMLHEEMIRWPNLEVEVSKKQRGKSMYAKSTDTGIDPKEAAKRLNVEWDSAAAIEEVDVDDEQGVVTKVAGYGALYFVSALPVIIGISVVLILFYNSLQ
B10: proton gradient regulation 5-like photosynthetic phenotype 1B (PGRL1B) (protein, UniProt Q8GYC7 50-313)
chain: ASTDQSGQVGGEEVDSKILPYCSINKNEKRTIGEMEQEFLQAMQSFYYEGKAIMSNEEFDNLKEELMWEGSSVVMLSSDEQRFLEASMAYVSGNPILSDEEYDKLKMKLKMDGSEIVCEGPRCSLRSKKVYSDLAIDYFKMFLLNVPATVVALGLFFFLDDITGFEITYLLELPEPFSFIFTWFAAVPAIVYLALSLTKLILKDFLILKGPCPNCGTENVSFFGTILSIPNDSNTNNVKCSGCGTEMVYDSGSRLITLPEGGKA
B11: PSII protein PSBQ1 (protein, UniProt Q9XFT3 76-224)
chain: DAISIKVGPPPAPSGGLPAGTDNSDQARDFALALKDRFYLQPLPPTEAAARAKESAKDIINVKPLIDRKAWPYVQNDLRSKASYLRYDLNTIISSKPKDEKKSLKDLTTKLFDTIDNLDYAAKKKSPSQAEKYYAETVSALNEVLAKLG
B12: FtSH1 (enzyme, UniProt Q39102 87-716)
chain: VVDEPASPSVVIESQAVKPSTPSPLFIQNEILKAPSPKSSDLPEGSQWRYSEFLNAVKKGKVERVRFSKDGSVVQLTAVDNRRASVIVPNDPDLIDILAMNGVDISVSEGESSGNDLFTVIGNLIFPLLAFGGLFLLFRRAQGGPGGGPGGLGGPMDFGRSKSKFQEVPETGVSFADVAGADQAKLELQEVVDFLKNPDKYTALGAKIPKGCLLVGPPGTGKTLLARAVAGEAGVPFFSCAASEFVELFVGVGASRVRDLFEKAKSKAPCIVFIDEIDAVGRQRGAGMGGGNDEREQTINQLLTEMDGFSGNSGVIVLAATNRPDVLDSALLRPGRFDRQVTVDRPDVAGRVKILQVHSRGKALGKDVDFDKVARRTPGFTGADLQNLMNEAAILAARRELKEISKDEISDALERIIAGPEKKNAVVSEEKKRLVAYHEAGHALVGALMPEYDPVAKISIIPRGQAGGLTFFAPSEERLESGLYSRSYLENQMAVALGGRVAEEVIFGDENVTTGASNDFMQVSRVARQMIERFGFSKKIGQVAVGGPGGNPFMGQQMSSQKDYSMATADIVDAEVRELVEKAYKRATEIITTHIDILHKLAQLLIEKETVDGEEFMSLFIDGQAELYIS

Protein sequences, listed by entry. Tags and fused reporters are not part of them. Residues count along the entry.
UniProt Q94AQ8, residues 18-348: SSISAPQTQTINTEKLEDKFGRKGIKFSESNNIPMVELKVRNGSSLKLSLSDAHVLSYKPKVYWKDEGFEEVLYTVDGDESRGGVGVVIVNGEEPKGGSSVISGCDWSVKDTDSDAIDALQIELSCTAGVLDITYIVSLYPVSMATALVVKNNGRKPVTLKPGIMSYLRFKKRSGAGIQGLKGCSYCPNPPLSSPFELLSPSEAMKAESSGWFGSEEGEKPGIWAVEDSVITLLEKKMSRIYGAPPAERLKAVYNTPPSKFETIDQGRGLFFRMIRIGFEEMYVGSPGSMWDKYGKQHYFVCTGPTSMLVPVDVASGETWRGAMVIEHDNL
UniProt Q9LZV4, residues 50-495: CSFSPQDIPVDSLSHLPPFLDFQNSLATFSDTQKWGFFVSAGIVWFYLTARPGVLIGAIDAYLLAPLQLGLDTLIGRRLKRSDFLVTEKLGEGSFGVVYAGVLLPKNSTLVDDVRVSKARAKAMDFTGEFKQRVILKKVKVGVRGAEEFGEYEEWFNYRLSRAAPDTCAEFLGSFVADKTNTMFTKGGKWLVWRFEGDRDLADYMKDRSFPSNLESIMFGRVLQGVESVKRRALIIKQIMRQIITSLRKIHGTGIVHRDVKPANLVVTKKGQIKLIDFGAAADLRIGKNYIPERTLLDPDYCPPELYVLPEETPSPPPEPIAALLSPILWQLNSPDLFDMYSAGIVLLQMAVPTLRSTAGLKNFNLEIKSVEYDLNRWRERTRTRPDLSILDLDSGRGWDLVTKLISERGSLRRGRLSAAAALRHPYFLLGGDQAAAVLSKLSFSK
UniProt Q9FG89, residues 49-212: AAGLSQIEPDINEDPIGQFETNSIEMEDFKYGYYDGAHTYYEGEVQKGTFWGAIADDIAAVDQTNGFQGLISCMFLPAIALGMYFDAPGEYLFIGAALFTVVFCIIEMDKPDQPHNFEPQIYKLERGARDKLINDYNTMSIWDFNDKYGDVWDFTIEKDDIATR
UniProt P26289: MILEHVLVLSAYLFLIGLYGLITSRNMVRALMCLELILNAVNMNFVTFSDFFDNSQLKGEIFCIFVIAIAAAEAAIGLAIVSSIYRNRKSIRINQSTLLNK
UniProt P56756: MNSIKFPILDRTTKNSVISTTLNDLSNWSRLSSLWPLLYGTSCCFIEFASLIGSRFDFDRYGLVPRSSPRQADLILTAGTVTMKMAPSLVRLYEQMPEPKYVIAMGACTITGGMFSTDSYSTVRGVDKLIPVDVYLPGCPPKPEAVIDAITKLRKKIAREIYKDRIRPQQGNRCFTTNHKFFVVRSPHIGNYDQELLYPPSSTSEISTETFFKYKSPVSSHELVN

target: T1, PsbS-TurboID-eGFP (Arabidopsis thaliana) (UniProt Q9XF91); test: proximity labelling; TurboID fused to PsbS in stable Arabidopsis seedlings (5-day old); 50 µM biotin, 3 h, 22°C, under high light (600 µmol m-2 s-1) or in the dark; streptavidin magnetic beads, LC-MS/MS, LFQ against the control PTP-TurboID-eGFP (log2 FC >= 1)
T1 sequence: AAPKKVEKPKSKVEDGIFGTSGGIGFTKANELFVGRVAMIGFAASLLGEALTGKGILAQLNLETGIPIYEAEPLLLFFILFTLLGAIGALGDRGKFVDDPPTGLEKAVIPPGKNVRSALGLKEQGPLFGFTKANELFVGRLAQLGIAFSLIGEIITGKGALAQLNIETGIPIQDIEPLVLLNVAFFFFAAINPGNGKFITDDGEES

**Q.** Which binding does the source give for RIQ1 here?
**A.** binds

**Q.** How did the binding turn out when PnsB2 (from UniProt Q94AQ8 18-348) was run?
**A.** binds

**Q.** thioredoxin X (THX) was tested. Which binding did it give?
**A.** binds

**Q.** For Lhcb1.5, which binding is on record?
**A.** binds

**Q.** With “STN8 (from UniProt Q9LZV4 50-495) (enzyme)” as the molecule, how does the binding read?
**A.** binds

**Q.** With PnsB5 (from UniProt Q9FG89 49-212) as the molecule, how does the binding read?
**A.** binds

**Q.** For Lhcb3 (from UniProt Q9S7M0 23-265), which binding is on record?
**A.** binds

**Q.** For NdhE (from UniProt P26289 1-101), which binding is on record?
**A.** binds

**Q.** How did the binding turn out when NdhK (from UniProt P56756 1-225) was run?
**A.** binds

**Q.** How did the binding turn out when CP24 was run?
**A.** binds

**Q.** For B1, which binding is on record?
**A.** binds

**Q.** B2 was tested. Which binding did it give?
**A.** binds

**Q.** With B3 as the molecule, how does the binding read?
**A.** binds

**Q.** Which binding does the source give for B4 here?
**A.** binds

**Q.** Which binding does the source give for B5 here?
**A.** binds

**Q.** Which binding does the source give for B6 here?
**A.** binds

**Q.** B7 was tested. Which binding did it give?
**A.** binds

**Q.** For B8, which binding is on record?
**A.** binds

**Q.** How did the binding turn out when B9 was run?
**A.** binds

**Q.** B10 was tested. Which binding did it give?
**A.** binds

**Q.** With B11 as the molecule, how does the binding read?
**A.** binds

**Q.** B12 was tested. Which binding did it give?
**A.** binds
